The values below come from doi:10.1101/2022.09.12.507607.

Results are given in words; binding and its absence hold for the method and conditions named. In cells and extracts the contact can be indirect. A yes stands for co-enrichment or nearness to the bait. Other partners may have been found.

The assay has as its target chromodomain helicase DNA-binding protein 4 (CHD4), wild type, mouse (mouse (endogenous in embryonic hearts)), Q6PDQ2. The assay is described as follows: affinity purification with mass spectrometry. As to conditions: remark: other sources report otherwise.

B1: SMARCA5, Q91ZW3 1-1051 (protein)
chain: MSSAVEPPPPPPPESAPSKPSAAGAGGSSSGNKGGPEGGAAPAAPCAAGSGPADTEMEEVFDHGSPGKQKEIQEPDPTYEEKMQTDRANRFEYLLKQTELFAHFIQPAAQKTPTSPLKMKPGRPRVKKDEKQNLLSVGDYRHRRTEQEEDEELLTESSKATNVCTRFEDSPSYVKWGKLRDYQVRGLNWLISLYENGINGILADEMGLGKTLQTISLLGYMKHYRNIPGPHMVLVPKSTLHNWMSEFKKWVPTLRSVCLIGDKEQRAAFVRDVLLPGEWDVCVTSYEMLIKEKSVFKKFNWRYLVIDEAHRIKNEKSKLSEIVREFKTTNRLLLTGTPLQNNLHELWSLLNFLLPDVFNSADDFDSWFDTNNCLGDQKLVERLHMVLRPFLLRRIKADVEKSLPPKKEVKIYVGLSKMQREWYTRILMKDIDILNSAGKMDKMRLLNILMQLRKCCNHPYLFDGAEPGPPYTTDMHLVTNSGKMVVLDKLLPKLKEQGSRVLIFSQMTRVLDILEDYCMWRNYEYCRLDGQTPHDERQDSINAYNEPNSTKFVFMLSTRAGGLGINLATADVVILYDSDWNPQVDLQAMDRAHRIGQTKTVRVFRFITDNTVEERIVERAEMKLRLDSIVIQQGRLVDQNLNKIGKDEMLQMIRHGATHVFASKESEITDEDIDGILERGAKKTAEMNEKLSKMGESSLRNFTMDTESSVYNFEGEDYREKQKIAFTEWIEPPKRERKANYAVDAYFREALRVSEPKAPKAPRPPKQPNVQDFQFFPPRLFELLEKEILYYRKTIGYKVPRSPDLPNAAQAQKEEQLKIDEAEPLNDEELEEKEKLLTQGFTNWNKRDFNQFIKANEKWGRDDIENIAREVEGKTPEEVIEYSAVFWERCNELQDIEKIMAQIERGEARIQRRISIKKALDTKIGRYKAPFHQLRISYGTNKGKNYTEEEDRFLICMLHKLGFDKENVYDELRQCIRNSPQFRFDWFLKSRTAMELQRRCNTLITLIERENMELEEKEKAEKKKRGPKPSTQKRKMDGAPDGRGRKKKLKL
Consider B1, for which the binding result is recorded as “binds”.
